Laboratory results as given in patent US20240358692A1, “TREATMENT OF SCLERODERMA” (Aisa Pharma, Inc., priority 2023, published 2024).
At least one compound was matched to its structure with a doubt left.

Tests used:
[1] = system: participants with SSc-RP; assay: Summary of data: dose response / overall response (Table S); assay type: in vivo, human; conditions: printed: Tadalafil 10 mg
[2] = system: participants with SSc-RP; assay: Frequency of weekly symptomatic RP attacks (patient diary), Phase 2a Part A; assay type: in vivo, human
From the text: Percent change from baseline evaluation for frequency of weekly RP attacks were or will be used as the primary efficacy variable. The sponsor-developed participant-informed diary will be used to record data. Frequency of weekly RP attacks is defined as the total number of RP attacks divided by the number of days with available diary data within the last 7 days of each dosing period then multiplied by 7. Total number of RP attacks during the last 7 days of screening period divided by the number of days with available data then multiplied by 7 will be used as baseline for the analysis of all periods. The variable will be calculated as follows: […]
Percent change from baseline evaluation for frequency of weekly RP attacks was and will be the primary efficacy endpoint. Frequency of weekly RP attacks is defined as the total number of RP attacks divided by the number of days with available diary data within the last 7 days of each dosing period then multiplied by 7. Total number of RP attacks during the last 7 days of screening period divided by the number of days with available data then multiplied by 7 will be used as baseline for the analysis of all periods.

SMILES: CN1CC(=O)N2[C@H](c3ccc4c(c3)OCO4)c3[nH]c4ccccc4c3C[C@@H]2C1=O [Tadalafil]
- Tadalafil helps (summary) [1]: mg helps
- frequency of attacks (direction of change) ([2]; baseline RCS>5.0, one treated patient, tadalafil monotherapy): increased the frequency of attacks
- overall efficacy in words (frequency, severity, duration of attacks, RCS) ([2]; tadalafil 5 mg monotherapy (n=2) versus the same dose added to cilnidipine): seemed ineffective (frequency of attacks increased)
